Results are given in words; binding and its absence hold for the method and conditions named. For part of these data: Binding can be weak; no strength is given. Sequences can lack the tags named with a protein.
T1: Ppn1 (PPP1R10 ortholog), full-length, yeast two-hybrid fusion (S. japonicus) (UniProt B6K4E4)
T1 sequence: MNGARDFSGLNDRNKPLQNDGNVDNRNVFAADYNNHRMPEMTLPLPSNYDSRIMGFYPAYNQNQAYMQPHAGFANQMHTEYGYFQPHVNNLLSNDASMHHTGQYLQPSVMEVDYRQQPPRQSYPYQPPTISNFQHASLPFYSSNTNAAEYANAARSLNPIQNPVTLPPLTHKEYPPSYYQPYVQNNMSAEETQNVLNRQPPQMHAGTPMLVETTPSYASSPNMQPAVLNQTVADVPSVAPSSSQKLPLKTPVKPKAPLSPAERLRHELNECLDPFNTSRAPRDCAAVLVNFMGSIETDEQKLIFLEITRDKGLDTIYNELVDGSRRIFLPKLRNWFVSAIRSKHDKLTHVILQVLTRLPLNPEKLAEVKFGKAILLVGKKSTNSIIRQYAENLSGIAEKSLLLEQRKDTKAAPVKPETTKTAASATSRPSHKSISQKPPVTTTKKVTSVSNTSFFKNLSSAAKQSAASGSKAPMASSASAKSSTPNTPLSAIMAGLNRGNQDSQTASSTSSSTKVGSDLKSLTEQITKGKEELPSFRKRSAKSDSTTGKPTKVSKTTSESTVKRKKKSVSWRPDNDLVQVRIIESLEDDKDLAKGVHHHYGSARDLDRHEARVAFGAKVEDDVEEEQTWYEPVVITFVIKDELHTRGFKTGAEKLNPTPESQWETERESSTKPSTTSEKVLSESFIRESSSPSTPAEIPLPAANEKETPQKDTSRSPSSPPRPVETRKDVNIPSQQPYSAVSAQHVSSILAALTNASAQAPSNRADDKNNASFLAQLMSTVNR


Target: T1, Ppn1 (PPP1R10 ortholog), full-length, yeast two-hybrid fusion (S. japonicus)
Assay: two-hybrid; pGBKT7 and pGADT7 plasmids co-transformed into S. cerevisiae AH109; growth on CM -Leu-Trp-His (medium interaction) and CM -Leu-Trp-His-Ade (strong interaction)

Molecule	binding
Pab2 N-terminal domain (N), yeast two-hybrid fusion (S. japonicus) (domain or fragment)	no binding
Pab2 RNA recognition motif (RRM) fragment, yeast two-hybrid fusion (S. japonicus) (domain or fragment)	no binding
Pab2ΔN (Pab2 lacking the N-terminal domain), yeast two-hybrid fusion (S. japonicus) (domain or fragment)	no binding
Pab2ΔRRM (Pab2 lacking the RNA recognition motif), yeast two-hybrid fusion (S. japonicus) (domain or fragment)	no binding

Target: Pab2 N-terminal domain (N), yeast two-hybrid fusion (S. japonicus)
Assay: as above

Molecule	binding
Red5 (ZC3H3 ortholog), full-length, yeast two-hybrid fusion (protein, UniProt B6JVP1 1-380) MAGTNSEEQKLLEQIASLAGAINKYKYSQEQIHHQSAQKPDGANSTNWRKRKLSHWSTSRNQTLVNNPPPSPSIKGAAAKTQDDVSSMSEDATEASMFVARKDRHMQLIHKSIYEQDAQARQASMETARAKLNEKRKAVAEKKTQQKLTDPNNHLLTIQELPFIINDKDPKFIECMDTLAQLPKHIYHEGRAYVLMNRSMYKFVGTSPYSVYCRYYNMVGYCAKGGKCMYVHDPAHKYVCPRFLSGNCPNGEQCSLSHDRDEKRTPACRYFLKGKCTNPVCRYAHVHYNESVPVCPDFSEYGMCENGLHCKMKHILKCTEYALKGACHNAKCRLYHPPKELESTEKKEGAVSAEKMQGEQKQDSESSSTASGATPIFISL	binds
Rmn1 (RBM26·27 ortholog), full-length, yeast two-hybrid fusion (protein, UniProt B6K5G4 1-589) MALLRHESAEEEVRQLCYSQLEDFLRQETIPFVDKVFDVLKERSYLEKEMKSPKGHLSTAATIPVSAPLAEKGPVAASNERPNAANAQANAPPFGGHQHPTLPAGFMPNPSGPPFPFPLPMLNPAAAAAAAAAAAAAAASGEFSPFQGSNNSSQASPMDIASPASPFPPPFQPRGSRRRCRDYETKGFCLRGDKCMFEHSSQPVRVSSPNHQNFAYDHRAPSRPIQHYSPRYIKGPSRDPSSTILQMRNVPPEYLDEQRIREFFEKFGPLEKVELHQTQSYAILHFKDHASAEAAWGSPEPIFNNRFIKVFWQATNTPSRGPPGQRRMTSSRVSHYTPYSRPQPRGEVVQEEDPVVTAQSPDFLKRVEEKQRAFEERRKKLEENKRKLEEINRKKQELALRQLKEQQVLMEKLKSADPASQSKVDILKTQLALLKAEADSLGIQVGSQNSPTPSTTTATSKPTVSYSHHPNASVGYSHAPARGRGGRFSFASMSLDNRPRRIQVNNVSPDKNELLLQHLLSVGEYESVTEPEPNTRMVNFRSRRAAEQFYDNVQTIDGLRDISLQWIPNGVAATQPSENQTDATMGNES	binds
